Results taken from publication PMC11180911.

Amino acid sequences for entries named in this document (tags omitted). A change or cut given only in a name is not applied to a line headed by its entry.
UniProt P15291: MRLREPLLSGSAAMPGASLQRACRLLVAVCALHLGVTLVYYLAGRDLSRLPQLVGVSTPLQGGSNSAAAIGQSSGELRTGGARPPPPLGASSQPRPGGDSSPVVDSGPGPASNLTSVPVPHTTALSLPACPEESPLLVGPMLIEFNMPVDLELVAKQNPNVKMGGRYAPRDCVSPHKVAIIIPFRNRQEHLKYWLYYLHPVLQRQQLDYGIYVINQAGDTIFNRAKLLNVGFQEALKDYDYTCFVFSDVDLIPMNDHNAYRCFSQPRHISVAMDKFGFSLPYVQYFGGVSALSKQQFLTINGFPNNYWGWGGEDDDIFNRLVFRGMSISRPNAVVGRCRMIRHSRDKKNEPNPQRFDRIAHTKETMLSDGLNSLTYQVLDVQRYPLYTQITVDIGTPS
UniProt P0A6F5: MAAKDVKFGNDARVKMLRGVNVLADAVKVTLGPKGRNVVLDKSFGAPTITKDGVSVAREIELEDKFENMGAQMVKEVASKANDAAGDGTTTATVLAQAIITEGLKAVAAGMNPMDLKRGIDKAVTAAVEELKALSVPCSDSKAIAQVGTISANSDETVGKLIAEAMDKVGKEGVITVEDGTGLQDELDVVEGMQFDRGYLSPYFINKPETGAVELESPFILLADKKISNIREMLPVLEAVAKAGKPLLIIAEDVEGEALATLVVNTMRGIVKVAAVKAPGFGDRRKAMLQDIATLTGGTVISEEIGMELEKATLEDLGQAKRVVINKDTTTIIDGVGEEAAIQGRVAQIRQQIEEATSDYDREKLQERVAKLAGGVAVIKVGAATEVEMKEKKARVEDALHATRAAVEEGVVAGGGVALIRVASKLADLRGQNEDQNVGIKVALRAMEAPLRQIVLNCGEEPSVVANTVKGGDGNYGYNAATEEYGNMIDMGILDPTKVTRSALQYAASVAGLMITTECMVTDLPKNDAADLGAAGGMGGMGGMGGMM

How the values were obtained:
[1] = biological target: Human Beta-1,4-galactosyltransferase 1 (B4Galt1) (human) (UniProt P15291); assay: affinity purification with mass spectrometry; His-tagged POI produced with CyDisCo (strains not given; Fig. S7); soluble lysate on HisPur Cobalt resin; eluate on SDS-PAGE
[2] = biological target: Human Beta-1,4-galactosyltransferase 1 (B4Galt1) (human) (UniProt P15291); assay: affinity purification with mass spectrometry; His-tagged POI produced in SHuffle strains (SHuffle T7 Express, SHuffle T7) in rich autoinduction media; soluble lysate on HisPur Cobalt resin, gravity flow; eluate on SDS-PAGE; co-eluted band excised and identified by MALDI-TOF MS

binding [1]: binds | binding [2]: binds
Substance: molecular chaperone GroEL (from UniProt P0A6F5 1-548)

These are yes or no findings as the source states them, for the method shown. In cells and extracts the contact can be indirect. Here binding means that the protein was enriched with, or labelled near, the bait; the list need not be complete.
